# In the supplement of paper PMC10689618:
# Where “and” joins values, the source holds several entries; their conditions need not be identical. Identical values can stand only once. Counter-ions that a name gives are not always drawn. Some of the results follow. Repeats are few or missing, and single values can be far off.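 Labelled rat cortical synaptosomes were engulfed by primary human fetal astrocytes. Engulfment equaled a red/green ratio, corrected for calcein live-cell signal and normalized to the plate median. Compounds were toxic when calcein dropped over 30%, and reduced phagocytosis when below 70% of the median above 5 µM.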
# Legend:
# Details in all cases: 24 h
# [1] = test system: Human fetal astrocytes; test: loss of total cells relative to no-compound high-control median (toxicity); higher = more toxic (fewer cells)
# [2] = test system: Human fetal astrocytes; test: synaptosome phagocytosis (pHrodo/calcein intensity ratio) relative to plate median of data wells; higher = more phagocytosis
# [3] = test system: Human fetal astrocytes; test: loss of total cells relative to no-compound high-control median (toxicity); higher = more toxic (fewer cells); remark: listed apart in the source
# [4] = test system: Human fetal astrocytes; test: synaptosome phagocytosis (pHrodo/calcein intensity ratio) relative to plate median of data wells; higher = more phagocytosis; remark: listed apart in the source
Structure (SMILES),loss of total cells ([1]; 1.39 µM),loss of total cells ([1]; 2.78 µM),loss of total cells ([1]; 5.56 µM),loss of total cells ([1]; 11.11 µM),loss of total cells ([1]; 22.22 µM),synaptosome phagocytosis ([2]; 1.39 µM),synaptosome phagocytosis ([2]; 2.78 µM),synaptosome phagocytosis ([2]; 5.56 µM),synaptosome phagocytosis ([2]; 11.11 µM),synaptosome phagocytosis ([2]; 22.22 µM),loss of total cells ([3]; 1.39 µM),loss of total cells ([3]; 2.78 µM),loss of total cells ([3]; 5.56 µM),loss of total cells ([3]; 11.11 µM),loss of total cells ([3]; 22.22 µM),synaptosome phagocytosis ([4]; 1.39 µM),synaptosome phagocytosis ([4]; 5.56 µM),synaptosome phagocytosis ([4]; 11.11 µM)
CC(C)N(CCC(C(N)=O)(c1ccccc1)c1ccccn1)C(C)C (stereo not drawn) [Disopyramide phosphate],-4.6%,-10.3%,-6.6%,-7.6%,12%,110%,111%,115%,117%,143%,,,,,,,,
CC1=C[C@@H]2c3cccc4[nH]cc(c34)C[C@H]2N(C)C1 [Agroclavine],-25.3%,-14.4%,-27.2%,-14.8%,-13.9%,87.7%,111%,104%,75.8%,86.9%,,,,,,,,
C/C=C(/C)C(=O)O[C@H]1CC[C@@]2(C)[C@@H]3CC[C@H]4[C@]5(O)C[C@H](O)[C@@]6(O)[C@@H](CN7C[C@@H](C)CC[C@H]7[C@@]6(C)O)[C@]5(O)C[C@]42O[C@]13O,,,,,,,,,,,-13.1% and -1.6%,-4.7%,0% and -16.1%,-10.1% and 8.8%,5.2% and 0%,101% and 88.9%,80.4% and 64.4%,97.4% and 120%
O=C1C=CC(=O)C=C1 [p-Benzoquinone],-18%,-5.4%,-15.2%,-4%,8.6%,88.1%,75.1%,90.2%,83.4%,102%,,,,,,,,
CC(N)Cc1c[nH]c2ccc(O)cc12 (stereo not drawn) [alpha-Methyl-5-hydroxytryptamine maleate],-1.4%,-17.6%,0.5%,11.4%,8.4%,121%,126%,109%,148%,148%,,,,,,,,
"O=[N+]([O-])c1cc(O)c(O)c([N+](=O)[O-])c1 [3,5-Dinitrocatechol]",-8.8%,-6.8%,-2.5%,-16.6%,-8%,85.6%,91.3%,106%,111%,104%,,,,,,,,
"C[N+]1(C)CCc2cc3c(cc2[C@H]1[C@@H]1OC(=O)c2c1ccc1c2OCO1)OCO3 [(-)-Bicuculline methbromide, 1(S), 9(R)]",-16.9%,-6%,-32.7%,-1.3%,-7.1%,110%,101%,108%,139%,84.2%,,,,,,,,
COc1ccc(CNC(=O)/C=C/c2ccc3[nH]cc(CCN(C)C)c3c2)cc1,-46.6%,-33.7%,-23.5%,-34.5%,-3.4%,67.5%,74.2%,80.8%,84.1%,68.2%,,,,,,,,
CCNC(=O)[C@H]1O[C@@H](n2cnc3c(N)ncnc32)[C@H](O)[C@@H]1O [5'-N-Ethylcarboxamidoadenosine],-12.1%,-29.9%,-20.6%,-23.8%,0%,95.5%,93.7%,90.8%,96%,90.3%,,,,,,,,
CCCN1CCC[C@@H]2Cc3nc(N)ncc3C[C@H]21 [Quinelorane dihydrochloride],-20.8%,-27.8%,-5.6%,-31.8%,-46.9%,82.7%,108%,102%,98%,101%,,,,,,,,
C#C[C@]1(O)CC[C@H]2[C@@H]3CCC4=Cc5nc6nc7ccccc7n6cc5C[C@]4(C)[C@H]3CC[C@@]21C,-30.7%,-14.7%,-0.6%,5.7%,-23.9%,86.7%,67.5%,61.8%,77.8%,73.6%,,,,,,,,
N[C@@H]1C[C@H]1c1ccccc1 [Tranylcypromine hydrochloride],-16.5%,-9.3%,-11.8%,-13.4%,-0.8%,81.5%,98.9%,100%,89.9%,109%,,,,,,,,
CC1Cc2cc3c(cc2C(c2ccc(N)cc2)=NN1)OCO3 (stereo not drawn),-14.6%,-5.1%,15.6%,-4.9%,1.6%,103%,103%,118%,130%,70%,,,,,,,,
c1ccc(CCCN2CCN(CCOC(c3ccccc3)c3ccccc3)CC2)cc1,-6.3%,1.7%,9.9%,4.9%,20.8%,106%,79.6%,85.2%,87.1%,42.8%,,,,,,,,
CN[C@@H](C)[C@H](O)c1ccccc1 [(-)-Ephedrine hemisulfate],1.3%,-0.9%,14.8%,24.7%,21.6%,115%,104%,79.9%,106%,87.7%,,,,,,,,
"CC(N)C(O)c1ccc(O)c(O)c1 (single isomer, unassigned; (-)) [(-)-alpha-Methylnorepinephrine]",11.3%,-13.7%,5.8%,11.2%,2.4%,114%,113%,94.8%,130%,113%,,,,,,,,
Cc1o[nH]c(=O)c1CC(N)C(=O)O (racemic) [(±)-AMPA hydrobromide],-0.4%,-17.9%,6.6%,-3.1%,1.6%,114%,106%,85.1%,98.6%,103%,,,,,,,,
CC(=O)O[C@H]1C[C@@H]2CC[C@@H]3[C@H](CC[C@@]4(C)[C@H]3C[C@H]([N+]3(C)CCCCC3)[C@@H]4OC(C)=O)[C@@]2(C)C[C@@H]1[N+]1(C)CCCCC1 [Pancuronium bromide],-3.3%,-10.4%,-8%,-15.2%,-3.7%,103%,95.8%,105%,110%,104%,,,,,,,,
"CCCN1CCO[C@@H]2c3cc(O)ccc3OC[C@H]21 [S(+)-PD 128,907 hydrochloride]",-11.5%,-30.2%,-4.5%,-28%,-37%,101%,78.7%,112%,108%,110%,,,,,,,,
COC(=O)N1CCN(C(=O)Cc2ccc(Cl)c(Cl)c2)C(CN2CCCC2)C1 (stereo not drawn),7.9%,-24.8%,16.5%,-17.5%,13.6%,143%,111%,100%,97%,99.9%,,,,,,,,
